Assay: general procedure: Fmoc solid-phase peptide synthesis; ChemMatrix Rink amide resin
Settings: whole synthesis, scale of the general procedure 0.1 mmol

Substance | difficulty met
Ac-LEKEAEELVVEEDVLEEEIEQLEERNYALRKEIEDLQKQLEKL-NH2 | 2 and 3 only produced at strikingly low yields
Ac-LARENEELEKEAEELVVEEDVLEEEIEQLEERNYALRKEIEDLQKQLEKL-NH2 | 2 and 3 only produced at strikingly low yields

— patent publication US20250188151A1 (The University of Bath, priority 2022, published 2025)
